Data as given in ChEMBL document CHEMBL1141364, “Design and synthesis of indane-ureido-thioisobutyric acids: A novel class of PPARalpha agonists” (Bioorg Med Chem Lett, 2007).

Biological target: T1, Peroxisome proliferator-activated receptor gamma (Homo sapiens, UniProt P37231)
T1 sequence (P37231 whole entry): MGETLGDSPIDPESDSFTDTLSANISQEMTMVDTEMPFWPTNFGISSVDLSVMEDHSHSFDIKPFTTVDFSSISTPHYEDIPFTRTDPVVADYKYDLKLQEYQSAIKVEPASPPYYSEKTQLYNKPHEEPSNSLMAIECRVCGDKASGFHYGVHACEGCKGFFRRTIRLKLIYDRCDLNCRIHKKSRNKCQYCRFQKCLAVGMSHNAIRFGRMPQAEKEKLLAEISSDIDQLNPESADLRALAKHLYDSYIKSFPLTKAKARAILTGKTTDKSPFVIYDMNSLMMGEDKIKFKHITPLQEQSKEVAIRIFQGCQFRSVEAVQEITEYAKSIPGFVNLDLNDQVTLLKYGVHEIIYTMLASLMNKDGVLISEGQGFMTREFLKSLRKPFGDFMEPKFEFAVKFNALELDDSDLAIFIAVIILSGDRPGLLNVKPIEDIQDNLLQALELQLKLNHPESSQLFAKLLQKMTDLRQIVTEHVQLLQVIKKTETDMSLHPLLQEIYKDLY

SMILES: CCCCCCCN(CCc1ccc(SC(C)(C)C(=O)O)cc1)C(=O)Nc1ccc(F)cc1F [GSK-9578]
- EC50: 0.5 µM
